Source: PubChem BioAssay AID1259425 (University of Nebraska Medical Center, 2018)

- Screen: 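Find knockdowns that reproduce the gene expression pattern seen when KSR1 is lost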 (primary screen)
- Cell system: HCT116 human colon cancer cells
- Reagents: siRNA pool against human genes, 50 nM siRNA
- Detection: 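mRNA of six signature genes measured together by branched-DNA assay after 50 nM siRNA pool, blank removed, divided by geometric mean of two housekeeping genes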
- Scale: BNIP3L mRNA: higher = more BNIP3L transcript after knockdown; NDRG1 mRNA: higher = more NDRG1 transcript after knockdown; BNIP3 mRNA: higher = more BNIP3 transcript after knockdown; ALDOC mRNA: higher = more ALDOC transcript after knockdown; ACSL5 mRNA: higher = more ACSL5 transcript after knockdown
In all, the deposit lists about 14,000 reagents; below is a part drawn at random. Reagent sequences are not shown. The record does not give: the time to read-out.

gene	BNIP3L mRNA, set 1	NDRG1 mRNA, set 1	BNIP3 mRNA, set 1	ALDOC mRNA, set 1	ACSL5 mRNA, set 1
CHD3	0.0507	0.0618	0.197	0.0163	0.0861
RAD18	0.0727	0.155	0.209	0.0475	0.112
LRP12	0.0686	0.374	0.182	0.0204	0.176
NDUFB10	0.151	0.288	0.339	0.0313	0.126
ADGRV1	0.254	0.278	0.905	0.0529	0.163
GABRB1	0.0598	0.238	0.205	0.0156	0.417
MAF1	0.263	0.18	0.316	0.0378	0.245
DLL1	0.0832	0.0555	0.407	0.00837	0.147
COX17	0.207	0.143	0.319	0.0255	0.105
SLC28A2	0.0343	0.17	0.185	0.0509	0.229
CBR4	0.134	0.183	0.308	0.0611	0.121
NUP58	0.0946	0.656	0.307	0.0254	0.0835
CACNG6	0.258	0.303	0.268	0.0319	0.186
KAT5	0.107	0.232	0.359	0.0553	0.688
VN1R1	0.1	0.111	0.242	0.0282	0.173
FUT4	0.176	0.315	0.354	0.0356	0.173
ZMAT5	0.289	1.18	0.326	0.0119	0.365
PPP1R3A	0.101	0.19	0.249	0.0272	0.117
FGF20	0.0567	0.103	0.271	0.0662	0.379
GGH	0.161	0.316	0.238	0.0446	0.3
ANK2	0.0436	0.207	0.265	0.014	0.149
GNPDA1	0.116	0.459	0.334	0.041	0.394
PITRM1	0.16	0.0794	0.228	0.0205	0.14
CORO7	0.236	0.409	0.51	0.0567	0.348
SLC35C1	0.141	0.131	0.303	0.00568	0.0811
RADX	0.128	0.125	0.285	0.0248	0.144
TRHDE	0.45	2.06	0.753	0.112	0.426
ARRDC3	0.155	0.459	0.3	0.0266	0.349
PSPHP1	0.0946	0.198	0.267	0.03	0.182
ACTA2	0.126	0.172	0.277	0.021	0.143
HOXC11	0.128	0.0907	0.264	0.00525	0.0996
PCDHA8	0.0453	0.0856	0.233	0.0101	0.106
TEC	0.0797	0.0659	0.223	0.00555	0.129
YIPF5	0.219	0.229	0.451	0.0412	0.353
RPAP1	0.247	1.08	0.76	0.00207	0.27
RPS11	0.0997	0.141	0.357	0.0172	0.169
FZD4	0.132	0.28	0.495	0.0537	0.166
GALNT17	0.0638	0.0797	0.263	0.0125	0.115
SIRPB1	0.163	0.299	0.413	0.0288	0.19
POLR2D	0.117	0.406	0.5	0.0562	0.167
SLFN12	0.143	0.367	0.255	0.0458	0.313
NOS1AP	0.0933	0.284	0.4	0.0465	0.25
TMEM120A	0.234	0.471	0.37	0.0899	0.505
RRP1B	0.102	0.196	0.281	0.00927	0.148
PIM1	0.111	0.16	0.24	0.0137	0.118
SYNJ2	0.142	0.0932	0.256	0.0573	0.324
CD247	0.0852	0.417	0.309	0.0368	0.269
PDPN	0.593	2	0.629	0.153	0.506
APEX2	0.239	0.331	0.512	0.072	0.481
FUCA1	0.0912	0.154	0.263	0.0292	0.162

Ordered by “ALDOC mRNA, set 1” (ascending): some entries from above.
gene	BNIP3L mRNA, set 1	NDRG1 mRNA, set 1	BNIP3 mRNA, set 1	ALDOC mRNA, set 1	ACSL5 mRNA, set 1
NUP58	0.0946	0.656	0.307	0.0254	0.0835
CACNG6	0.258	0.303	0.268	0.0319	0.186
KAT5	0.107	0.232	0.359	0.0553	0.688
CBR4	0.134	0.183	0.308	0.0611	0.121
